The other results are listed elsewhere or left out.
Compound: CC1Cc2ccccc2N1C(=O)C1CCCN(C1)C(=O)CCl (mixture of isomers) [TRIM25 ligand 11 (diastereomer mixture)]
Assay: probe-labelled cysteine peptide fold change vs DMSO (competition) (log2 fold change); higher = less target engagement (more negative = stronger competition)
Details: THP-1, incubation time: 4 h
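Also: competitive chemoproteomic profiling in live THP-1 cells with an iodoacetamide desthiobiotin (IA-DTB) probe, comparing probe-labelled peptide intensities in compound-treated cells against DMSO-treated controls.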

Amino acid sequences for entries named in this document (tags omitted). A change or cut given only in a name is not applied to a line headed by its entry.
UniProt P00390: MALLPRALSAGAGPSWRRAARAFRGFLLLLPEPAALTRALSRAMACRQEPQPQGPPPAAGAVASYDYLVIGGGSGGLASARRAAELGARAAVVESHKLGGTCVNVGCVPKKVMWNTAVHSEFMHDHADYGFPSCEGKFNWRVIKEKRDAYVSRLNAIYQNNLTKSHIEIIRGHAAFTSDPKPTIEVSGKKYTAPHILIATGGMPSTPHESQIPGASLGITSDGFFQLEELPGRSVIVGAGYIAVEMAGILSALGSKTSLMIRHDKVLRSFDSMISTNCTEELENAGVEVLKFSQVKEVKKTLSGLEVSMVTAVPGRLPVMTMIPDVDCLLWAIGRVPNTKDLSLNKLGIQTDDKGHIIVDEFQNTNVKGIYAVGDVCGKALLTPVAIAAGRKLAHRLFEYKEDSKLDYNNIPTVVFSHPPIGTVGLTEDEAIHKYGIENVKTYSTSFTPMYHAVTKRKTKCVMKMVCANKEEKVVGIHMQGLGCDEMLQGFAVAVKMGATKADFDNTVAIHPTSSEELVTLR
UniProt P49840: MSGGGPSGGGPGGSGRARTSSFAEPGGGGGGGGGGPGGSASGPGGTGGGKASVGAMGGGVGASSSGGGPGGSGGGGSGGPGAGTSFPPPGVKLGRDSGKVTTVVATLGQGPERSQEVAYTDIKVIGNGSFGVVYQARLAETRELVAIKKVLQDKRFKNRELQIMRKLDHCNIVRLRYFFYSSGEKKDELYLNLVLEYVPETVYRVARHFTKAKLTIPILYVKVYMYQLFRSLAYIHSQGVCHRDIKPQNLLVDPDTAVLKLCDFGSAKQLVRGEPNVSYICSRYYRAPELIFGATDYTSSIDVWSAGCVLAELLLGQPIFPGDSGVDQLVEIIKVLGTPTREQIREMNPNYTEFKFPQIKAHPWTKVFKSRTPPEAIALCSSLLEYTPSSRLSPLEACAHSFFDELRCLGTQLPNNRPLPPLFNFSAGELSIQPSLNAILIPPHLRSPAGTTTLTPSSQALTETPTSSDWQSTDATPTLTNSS
UniProt P78347: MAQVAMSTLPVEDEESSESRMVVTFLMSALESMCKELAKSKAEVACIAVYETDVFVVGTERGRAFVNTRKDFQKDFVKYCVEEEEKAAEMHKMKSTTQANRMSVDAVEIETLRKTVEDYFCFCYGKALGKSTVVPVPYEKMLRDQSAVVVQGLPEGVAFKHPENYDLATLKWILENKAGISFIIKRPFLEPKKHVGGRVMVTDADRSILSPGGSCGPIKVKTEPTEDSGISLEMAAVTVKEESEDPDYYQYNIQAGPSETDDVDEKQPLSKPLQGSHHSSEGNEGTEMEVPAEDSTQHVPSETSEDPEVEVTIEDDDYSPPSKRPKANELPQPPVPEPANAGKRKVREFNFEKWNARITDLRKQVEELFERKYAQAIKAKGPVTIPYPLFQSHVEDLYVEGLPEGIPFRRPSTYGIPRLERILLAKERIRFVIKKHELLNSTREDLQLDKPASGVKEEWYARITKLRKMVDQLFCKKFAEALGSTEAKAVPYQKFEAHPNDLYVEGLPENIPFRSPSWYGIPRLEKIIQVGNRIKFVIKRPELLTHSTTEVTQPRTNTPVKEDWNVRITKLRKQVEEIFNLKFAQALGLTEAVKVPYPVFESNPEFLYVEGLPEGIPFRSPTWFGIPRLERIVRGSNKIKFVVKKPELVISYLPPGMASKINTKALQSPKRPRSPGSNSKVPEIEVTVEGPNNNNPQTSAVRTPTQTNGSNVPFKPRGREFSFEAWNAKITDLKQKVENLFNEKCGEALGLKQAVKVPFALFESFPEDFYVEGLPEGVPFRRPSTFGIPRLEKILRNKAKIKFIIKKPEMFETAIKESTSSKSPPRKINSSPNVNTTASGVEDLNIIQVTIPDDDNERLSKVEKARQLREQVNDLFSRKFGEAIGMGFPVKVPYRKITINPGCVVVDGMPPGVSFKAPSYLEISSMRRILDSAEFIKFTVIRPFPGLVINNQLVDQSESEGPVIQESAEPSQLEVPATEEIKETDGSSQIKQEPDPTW
UniProt P09488: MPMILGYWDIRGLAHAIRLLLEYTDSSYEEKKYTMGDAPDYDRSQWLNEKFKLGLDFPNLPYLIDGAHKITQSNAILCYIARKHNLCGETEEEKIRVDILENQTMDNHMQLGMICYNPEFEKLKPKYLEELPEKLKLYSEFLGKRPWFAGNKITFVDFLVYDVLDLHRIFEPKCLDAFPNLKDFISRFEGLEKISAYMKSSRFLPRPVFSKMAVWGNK
UniProt Q8WW33: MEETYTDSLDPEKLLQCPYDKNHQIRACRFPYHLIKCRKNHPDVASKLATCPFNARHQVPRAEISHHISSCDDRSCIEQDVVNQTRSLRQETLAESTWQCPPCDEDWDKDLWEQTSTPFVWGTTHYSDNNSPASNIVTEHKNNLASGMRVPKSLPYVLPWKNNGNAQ
UniProt Q92664: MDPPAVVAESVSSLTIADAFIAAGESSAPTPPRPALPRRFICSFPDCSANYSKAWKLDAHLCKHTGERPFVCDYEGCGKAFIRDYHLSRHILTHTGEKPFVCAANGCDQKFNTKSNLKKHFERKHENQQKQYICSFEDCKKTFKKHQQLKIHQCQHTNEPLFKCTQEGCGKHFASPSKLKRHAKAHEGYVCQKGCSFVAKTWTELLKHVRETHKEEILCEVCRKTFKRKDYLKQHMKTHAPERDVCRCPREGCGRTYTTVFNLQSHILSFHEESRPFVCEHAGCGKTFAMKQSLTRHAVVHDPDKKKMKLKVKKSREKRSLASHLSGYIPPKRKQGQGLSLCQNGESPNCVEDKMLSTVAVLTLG
UniProt P57764: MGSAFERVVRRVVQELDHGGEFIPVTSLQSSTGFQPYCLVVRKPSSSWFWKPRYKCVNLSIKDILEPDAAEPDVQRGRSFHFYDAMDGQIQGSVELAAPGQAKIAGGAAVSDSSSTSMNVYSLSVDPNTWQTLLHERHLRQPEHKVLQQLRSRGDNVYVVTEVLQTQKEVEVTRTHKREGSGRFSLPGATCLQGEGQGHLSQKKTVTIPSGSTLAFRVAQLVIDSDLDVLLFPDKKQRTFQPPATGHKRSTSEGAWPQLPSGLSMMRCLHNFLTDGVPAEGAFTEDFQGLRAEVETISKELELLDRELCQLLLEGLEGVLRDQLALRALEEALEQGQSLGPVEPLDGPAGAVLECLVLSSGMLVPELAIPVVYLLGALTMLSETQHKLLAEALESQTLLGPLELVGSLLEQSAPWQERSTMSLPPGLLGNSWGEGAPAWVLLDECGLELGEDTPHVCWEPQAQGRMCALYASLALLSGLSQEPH
UniProt Q9BQ67, whole entry, looked up: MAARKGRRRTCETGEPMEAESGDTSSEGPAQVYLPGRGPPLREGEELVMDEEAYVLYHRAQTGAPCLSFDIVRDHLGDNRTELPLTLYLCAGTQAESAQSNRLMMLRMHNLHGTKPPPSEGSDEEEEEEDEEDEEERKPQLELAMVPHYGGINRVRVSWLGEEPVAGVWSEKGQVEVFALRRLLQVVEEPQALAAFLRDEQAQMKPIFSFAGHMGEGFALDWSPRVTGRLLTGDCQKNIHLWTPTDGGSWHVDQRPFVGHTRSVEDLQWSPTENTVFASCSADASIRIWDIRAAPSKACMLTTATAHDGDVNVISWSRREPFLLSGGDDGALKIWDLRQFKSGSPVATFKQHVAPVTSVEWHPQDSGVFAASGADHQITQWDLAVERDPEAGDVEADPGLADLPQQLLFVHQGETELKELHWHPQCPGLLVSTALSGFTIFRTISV
UniProt Q8WUA4: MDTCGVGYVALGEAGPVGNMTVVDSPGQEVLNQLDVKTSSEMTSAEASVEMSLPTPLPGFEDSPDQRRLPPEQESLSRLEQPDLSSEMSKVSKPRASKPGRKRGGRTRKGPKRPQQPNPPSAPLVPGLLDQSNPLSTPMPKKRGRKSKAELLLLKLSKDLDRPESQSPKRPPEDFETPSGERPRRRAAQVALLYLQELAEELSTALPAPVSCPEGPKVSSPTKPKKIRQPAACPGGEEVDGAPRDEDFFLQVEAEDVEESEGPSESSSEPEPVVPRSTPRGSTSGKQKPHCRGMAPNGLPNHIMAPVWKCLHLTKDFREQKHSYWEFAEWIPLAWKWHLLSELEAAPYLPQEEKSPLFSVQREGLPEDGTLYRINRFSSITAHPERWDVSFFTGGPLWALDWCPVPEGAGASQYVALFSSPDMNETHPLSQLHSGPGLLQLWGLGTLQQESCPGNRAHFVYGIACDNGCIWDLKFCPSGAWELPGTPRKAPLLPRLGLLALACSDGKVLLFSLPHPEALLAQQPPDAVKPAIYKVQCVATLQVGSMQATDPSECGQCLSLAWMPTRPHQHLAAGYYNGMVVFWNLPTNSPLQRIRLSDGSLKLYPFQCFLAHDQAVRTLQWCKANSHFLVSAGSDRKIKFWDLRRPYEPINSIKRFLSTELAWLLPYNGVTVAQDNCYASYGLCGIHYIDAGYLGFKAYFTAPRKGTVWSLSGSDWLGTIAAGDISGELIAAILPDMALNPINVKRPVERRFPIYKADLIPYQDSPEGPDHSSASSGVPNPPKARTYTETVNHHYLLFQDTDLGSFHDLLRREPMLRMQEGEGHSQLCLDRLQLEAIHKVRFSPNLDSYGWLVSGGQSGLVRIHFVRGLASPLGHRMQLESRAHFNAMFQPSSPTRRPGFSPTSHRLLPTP
UniProt Q9UHL9: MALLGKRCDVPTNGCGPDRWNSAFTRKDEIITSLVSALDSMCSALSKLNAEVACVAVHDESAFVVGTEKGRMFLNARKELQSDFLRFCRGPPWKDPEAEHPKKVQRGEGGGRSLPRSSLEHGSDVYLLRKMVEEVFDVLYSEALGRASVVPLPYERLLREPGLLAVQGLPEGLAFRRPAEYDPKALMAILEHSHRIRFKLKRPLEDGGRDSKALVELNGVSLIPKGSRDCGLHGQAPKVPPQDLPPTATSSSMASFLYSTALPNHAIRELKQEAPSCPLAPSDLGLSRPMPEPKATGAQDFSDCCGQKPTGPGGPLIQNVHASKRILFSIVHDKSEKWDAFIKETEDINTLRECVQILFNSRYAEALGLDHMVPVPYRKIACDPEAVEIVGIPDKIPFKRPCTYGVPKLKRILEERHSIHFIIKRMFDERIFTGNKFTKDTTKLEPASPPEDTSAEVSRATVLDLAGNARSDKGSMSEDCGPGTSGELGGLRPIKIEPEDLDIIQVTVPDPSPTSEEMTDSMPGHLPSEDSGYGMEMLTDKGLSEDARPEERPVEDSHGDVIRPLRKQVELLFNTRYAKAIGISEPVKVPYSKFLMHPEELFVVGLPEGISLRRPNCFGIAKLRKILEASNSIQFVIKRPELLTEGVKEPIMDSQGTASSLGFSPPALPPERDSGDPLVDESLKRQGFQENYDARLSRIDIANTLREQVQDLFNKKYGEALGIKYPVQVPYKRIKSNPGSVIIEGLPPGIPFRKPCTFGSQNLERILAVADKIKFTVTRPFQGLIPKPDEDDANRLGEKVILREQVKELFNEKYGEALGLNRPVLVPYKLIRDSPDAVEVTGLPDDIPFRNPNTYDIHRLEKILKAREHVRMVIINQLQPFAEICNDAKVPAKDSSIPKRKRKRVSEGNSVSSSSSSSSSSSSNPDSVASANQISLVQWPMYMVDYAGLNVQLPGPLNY
UniProt P28799: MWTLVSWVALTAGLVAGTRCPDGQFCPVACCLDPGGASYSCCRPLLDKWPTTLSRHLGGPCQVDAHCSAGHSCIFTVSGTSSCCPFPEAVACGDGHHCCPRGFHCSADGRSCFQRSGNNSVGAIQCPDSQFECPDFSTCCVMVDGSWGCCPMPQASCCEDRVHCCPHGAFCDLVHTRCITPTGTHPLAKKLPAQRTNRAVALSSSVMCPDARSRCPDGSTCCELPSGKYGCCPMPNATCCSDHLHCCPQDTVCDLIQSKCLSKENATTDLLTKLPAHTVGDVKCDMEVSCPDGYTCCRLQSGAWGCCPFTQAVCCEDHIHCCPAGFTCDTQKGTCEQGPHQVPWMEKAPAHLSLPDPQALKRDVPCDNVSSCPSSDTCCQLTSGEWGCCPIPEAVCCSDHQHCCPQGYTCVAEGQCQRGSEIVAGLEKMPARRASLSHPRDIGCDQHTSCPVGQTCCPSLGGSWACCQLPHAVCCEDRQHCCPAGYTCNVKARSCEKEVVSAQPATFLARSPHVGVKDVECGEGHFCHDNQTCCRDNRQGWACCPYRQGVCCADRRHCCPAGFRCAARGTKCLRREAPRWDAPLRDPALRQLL

Target | probe-labelled cysteine peptide fold change (10 µM) | probe-labelled cysteine peptide fold change (50 µM)
HACL1_Q9UJ83_392_DCFVVSEGANTMDIGR (UniProt Q9UJ83) | 0.00692 | 0.0733
GSR_P00390_484_VVGIHMQGLGCDEMLQGFAVAVK (UniProt P00390) | 0.00688 | -0.0299
GSK3A_P49840_398_LSPLEACAHSFFDELR (UniProt P49840) | -0.086 | -0.0328
GTF2I_P78347_34_MVVTFLMSALESMCK (UniProt P78347) | -0.142 | -0.099
GSTM1_P09488_115_IRVDILENQTMDNHMQLGMICYNPEFEK (UniProt P09488) | 0.0298 | -0.105
GTSF1_Q8WW33_51_LATCPFNAR (UniProt Q8WW33) | -0.439 | -0.231
GTF3A_Q92664_191_AHEGYVCQK (UniProt Q92664) | 0.0464 | 0.122
GSDMD_P57764_56_CVNLSIK (UniProt P57764) | -0.0386 | 0.0346
GRWD1_Q9BQ67_11_TCETGEPMEAESGDTSSEGPAQVYLPGR (UniProt Q9BQ67) | 0.0545 | -0.238
GSTCD_Q8NEC7_449_IVDFCSGGGHVGIVLAHMLPSCQVTLIENK (UniProt Q8NEC7) | -0.016 | 0.0688
GTF3C2_Q8WUA4_469_AHFVYGIACDNGCIWDLK (UniProt Q8WUA4) | 0.207 | 0.215
GTF2IRD1_Q9UHL9_277_QEAPSCPLAPSDLGLSR (UniProt Q9UHL9) | 0.118 | -0.243
GTSF1_Q8WW33_100+103_QETLAESTWQCPPCDEDWDK (UniProt Q8WW33) | 0.167 | 0.00661
GRN_P28799_165+171_VHCCPHGAFCDLVHTR (UniProt P28799) | 0.198 | 0.0803

Rewritten with tabs: entries from further up
Target	probe-labelled cysteine peptide fold change (10 µM)	probe-labelled cysteine peptide fold change (50 µM)
GSDMD_P57764_56_CVNLSIK (UniProt P57764)	-0.0386	0.0346
GTF3C2_Q8WUA4_469_AHFVYGIACDNGCIWDLK (UniProt Q8WUA4)	0.207	0.215
